Laboratory results reported in patent publication US20210253598A1, “ARYL ANNULATED MACROCYCLIC INDOLE DERIVATIVES” (priority 2017, published 2021).

System: MV-4-11
Experiment: Anti-proliferative effect in MV-4-11 cells, CellTiter-Glo (Assay 7)
Conditions: read-out: Antiproli MV-4-11, MV-4-11, 72 hours incubation, several values per example

Cc1c2c(nn1C)COCc1ncccc1Cn1c(C(=O)O)c(CCCOc3cccc4ccccc34)c3ccc(Cl)c-2c31
IC50: 3.34 µM and 6.69 µM

Some entries of the source have several records that differ or are many. This is not the full list of results. The source may hold further records. The values listed for one entry do not match, cause unknown; dose, time, organism, isomer or construct need not be as stated for each record.
